Article PMC5303829, “A CAF40-binding motif facilitates recruitment of the CCR4-NOT complex to mRNAs targeted by Drosophila Roquin” (Nature Communications, 2017)

Amino acid sequences for entries named in this document (tags omitted). A change or cut given only in a name is not applied to a line headed by its entry.
UniProt Q7JVP2: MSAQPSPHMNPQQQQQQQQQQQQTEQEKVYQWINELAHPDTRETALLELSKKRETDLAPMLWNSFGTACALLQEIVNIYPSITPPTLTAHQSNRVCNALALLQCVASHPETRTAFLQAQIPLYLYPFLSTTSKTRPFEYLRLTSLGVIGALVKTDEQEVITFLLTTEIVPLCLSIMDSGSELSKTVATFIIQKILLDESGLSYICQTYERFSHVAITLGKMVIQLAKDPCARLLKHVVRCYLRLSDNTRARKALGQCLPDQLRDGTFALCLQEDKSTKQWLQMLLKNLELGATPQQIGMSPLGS

How the values were obtained:
[1] = biological target: T1, GFP-tagged Dm Roquin (full-length, wild-type) (Drosophila melanogaster) (UniProt Q9VV48); assay: co-IP; GFP-tagged Dm Roquin and HA-tagged deadenylase or decapping factors co-expressed in Dm S2 cells; lysates treated with RNase A; anti-GFP and anti-HA blots
T1 sequence: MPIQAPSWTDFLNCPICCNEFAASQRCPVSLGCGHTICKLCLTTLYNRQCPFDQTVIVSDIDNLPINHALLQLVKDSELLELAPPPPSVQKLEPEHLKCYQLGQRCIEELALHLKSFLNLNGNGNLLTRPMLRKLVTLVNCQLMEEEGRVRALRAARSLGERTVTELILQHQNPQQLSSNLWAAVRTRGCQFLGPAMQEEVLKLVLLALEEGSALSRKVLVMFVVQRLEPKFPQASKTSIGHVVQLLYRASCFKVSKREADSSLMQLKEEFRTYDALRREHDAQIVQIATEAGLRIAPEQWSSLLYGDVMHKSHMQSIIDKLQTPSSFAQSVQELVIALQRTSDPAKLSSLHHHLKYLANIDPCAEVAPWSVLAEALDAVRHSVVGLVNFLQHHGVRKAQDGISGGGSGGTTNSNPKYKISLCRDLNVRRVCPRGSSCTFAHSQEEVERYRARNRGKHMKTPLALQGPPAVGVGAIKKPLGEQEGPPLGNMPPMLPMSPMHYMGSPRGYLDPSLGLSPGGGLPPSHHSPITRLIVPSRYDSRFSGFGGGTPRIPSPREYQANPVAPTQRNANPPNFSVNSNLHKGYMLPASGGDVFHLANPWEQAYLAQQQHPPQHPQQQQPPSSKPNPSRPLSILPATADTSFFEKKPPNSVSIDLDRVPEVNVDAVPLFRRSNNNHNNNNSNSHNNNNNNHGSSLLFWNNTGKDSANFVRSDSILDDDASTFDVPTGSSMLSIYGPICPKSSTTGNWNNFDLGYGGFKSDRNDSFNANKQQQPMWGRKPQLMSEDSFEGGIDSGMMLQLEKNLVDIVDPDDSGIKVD

[2] = biological target: T1, GFP-tagged Dm Roquin (full-length, wild-type) (Drosophila melanogaster); assay: co-IP; GFP-tagged Dm Roquin and HA-tagged CAF40 co-expressed in Dm S2 cells in the presence of HA-tagged CN9BD; lysates treated with RNase A (Fig. 5)
[3] = biological target: T2, GFP-tagged Dm Roquin ΔCBM (Drosophila melanogaster) (UniProt Q9VV48); assay: co-IP; GFP-tagged Dm Roquin and HA-tagged deadenylase or decapping factors co-expressed in Dm S2 cells; lysates treated with RNase A; anti-GFP and anti-HA blots
T2 sequence: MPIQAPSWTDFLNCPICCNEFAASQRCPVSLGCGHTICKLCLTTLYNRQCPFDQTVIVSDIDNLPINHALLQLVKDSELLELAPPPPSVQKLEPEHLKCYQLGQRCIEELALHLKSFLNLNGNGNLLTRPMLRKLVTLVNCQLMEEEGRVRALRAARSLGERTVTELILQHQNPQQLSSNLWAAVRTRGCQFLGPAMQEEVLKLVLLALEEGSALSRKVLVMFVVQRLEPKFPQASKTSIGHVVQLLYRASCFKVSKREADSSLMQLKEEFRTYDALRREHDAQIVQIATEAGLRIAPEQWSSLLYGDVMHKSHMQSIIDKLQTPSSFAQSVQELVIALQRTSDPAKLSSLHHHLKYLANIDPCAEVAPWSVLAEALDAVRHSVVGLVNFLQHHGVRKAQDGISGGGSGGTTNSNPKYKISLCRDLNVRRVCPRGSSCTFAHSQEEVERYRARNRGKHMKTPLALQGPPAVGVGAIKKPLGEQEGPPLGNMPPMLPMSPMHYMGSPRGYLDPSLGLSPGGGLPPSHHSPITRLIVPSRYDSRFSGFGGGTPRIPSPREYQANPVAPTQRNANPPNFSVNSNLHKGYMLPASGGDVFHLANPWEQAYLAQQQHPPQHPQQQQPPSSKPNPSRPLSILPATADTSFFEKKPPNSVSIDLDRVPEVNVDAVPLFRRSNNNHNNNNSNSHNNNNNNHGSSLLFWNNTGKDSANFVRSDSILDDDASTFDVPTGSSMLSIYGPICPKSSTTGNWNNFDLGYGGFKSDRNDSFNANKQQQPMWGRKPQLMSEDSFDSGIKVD

[4] = biological target: T3, GFP-tagged Dm Roquin ΔNBM (Drosophila melanogaster) (UniProt Q9VV48); assay: as above
T3 sequence: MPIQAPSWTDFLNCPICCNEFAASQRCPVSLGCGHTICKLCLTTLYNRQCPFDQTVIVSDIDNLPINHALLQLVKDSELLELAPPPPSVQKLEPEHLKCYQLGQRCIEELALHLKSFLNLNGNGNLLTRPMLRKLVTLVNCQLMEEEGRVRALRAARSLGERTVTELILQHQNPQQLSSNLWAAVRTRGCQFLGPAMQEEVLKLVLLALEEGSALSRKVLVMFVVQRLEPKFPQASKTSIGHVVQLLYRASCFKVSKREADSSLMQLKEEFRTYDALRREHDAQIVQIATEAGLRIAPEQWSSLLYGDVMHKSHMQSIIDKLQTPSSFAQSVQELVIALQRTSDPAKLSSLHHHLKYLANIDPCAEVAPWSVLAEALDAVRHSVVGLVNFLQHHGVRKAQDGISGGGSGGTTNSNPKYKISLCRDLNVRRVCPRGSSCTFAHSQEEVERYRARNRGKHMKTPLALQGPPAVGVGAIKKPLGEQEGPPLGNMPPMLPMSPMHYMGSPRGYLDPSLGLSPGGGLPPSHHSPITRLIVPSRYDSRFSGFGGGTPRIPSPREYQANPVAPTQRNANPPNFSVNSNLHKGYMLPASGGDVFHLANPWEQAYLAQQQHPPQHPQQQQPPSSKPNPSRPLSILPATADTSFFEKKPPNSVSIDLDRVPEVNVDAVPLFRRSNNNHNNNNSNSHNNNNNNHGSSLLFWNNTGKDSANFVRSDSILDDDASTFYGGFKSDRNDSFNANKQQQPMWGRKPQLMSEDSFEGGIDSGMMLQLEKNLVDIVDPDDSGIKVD

Substance	binding [1]	binding [2]	also measured
HA-tagged HPat (S2 cells)	binds	–	–
HA-tagged NOT10 (S2 cells)	binds	–	–
HA-tagged Dm CAF40 mutant corresponding to Hs CAF40 Y134D, G141W (from UniProt Q7JVP2)	–	no binding	–
HA-tagged CAF1 (S2 cells)	binds	–	–
HA-tagged NOT3 (S2 cells)	binds	–	binding [3]: binds; binding [4]: binds
HA-tagged Dm CAF40 mutant corresponding to Hs CAF40 V181E (from UniProt Q7JVP2)	–	no binding	–

Results are given in words; binding and its absence hold for the method and conditions named. In cells and extracts the contact can be indirect. For some assays here: Binding can be weak; no strength is given. Sequences can lack the tags named with a protein.
